Test results taken from paper doi:10.1101/2020.08.17.253450.
These are yes or no findings as the source states them, for the method shown. Some entries that bind do so weakly or less than the wild type.

Sequences of proteins named here, by UniProt entry; tags and fusion partners are left off.
UniProt O00399: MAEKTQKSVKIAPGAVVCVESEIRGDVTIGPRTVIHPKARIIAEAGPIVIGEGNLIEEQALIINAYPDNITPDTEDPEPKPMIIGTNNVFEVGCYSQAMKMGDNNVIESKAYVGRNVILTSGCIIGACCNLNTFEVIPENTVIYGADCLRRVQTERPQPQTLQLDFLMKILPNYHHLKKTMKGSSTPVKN

Biological target: T1, human TMEM39A second cytoplasmic loop domain (a.a. 337-420) (human) (UniProt Q9NV64)
T1 sequence: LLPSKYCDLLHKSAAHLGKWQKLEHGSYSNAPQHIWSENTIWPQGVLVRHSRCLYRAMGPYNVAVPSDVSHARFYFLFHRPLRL
Experiment: two-hybrid

binding: binds
Substance: Dctn6 full length (a.a. 1-190) (from UniProt O00399 1-190)
